Measurements taken from patent publication US20090180952A1.
These are yes or no findings as the source states them, for the method shown. Some results given as binding are weak or reduced against the parent protein; the word gives no strength.

By UniProt entry, the sequences of proteins in these tests, tags left out. Residues count along the entry.
UniProt Q03405, residues 110-301: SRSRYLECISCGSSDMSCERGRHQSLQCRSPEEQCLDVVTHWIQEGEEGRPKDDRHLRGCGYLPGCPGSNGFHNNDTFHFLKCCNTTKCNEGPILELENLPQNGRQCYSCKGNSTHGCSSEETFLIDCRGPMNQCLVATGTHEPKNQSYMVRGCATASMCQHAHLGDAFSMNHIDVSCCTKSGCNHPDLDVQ

Legend:
[1] = target: soluble domain2/domain3 (D2D3) fragment of suPAR (UniProt Q03405); assay: Western blot, recombinant protein on PVDF probed with 5 ug/ml antibody
[2] = target: soluble domain2/domain3 (D2D3) fragment of suPAR (UniProt Q03405); assay: Western blot, antibody 5 ug/ml
[3] = target: soluble domain2/domain3 (D2D3) fragment of suPAR (UniProt Q03405); assay: Western blot

Measured: binding

B1: mAb ATN-615 (antibody, IgG1, V domains shown)
VH: VKLQQSGPEVVKPGASVKISCKASGYSFTNFYIHWVKQRPGQGLEWIGWIFHGSDNTEYNEKFKDKATLTADTSSSTAYMQLSSLTSEDSAVYFCARWGPHWYFDVWGQGTTVTVSS
VL: DIVLTQSPDITAASLGQKVTITCSASSSVSYMHWYQQKSGTSPKPWIFEISKLASGVPARFSGSGSGTSYSLTISSMEAEDAAIYYCQQWNYPFTFGGGTKLEIKR
binds: all assays above
